The other results are listed elsewhere or left out.

Amino acid sequences for entries named in this document (tags omitted). A change or cut given only in a name is not applied to a line headed by its entry.
UniProt Q9BTE3: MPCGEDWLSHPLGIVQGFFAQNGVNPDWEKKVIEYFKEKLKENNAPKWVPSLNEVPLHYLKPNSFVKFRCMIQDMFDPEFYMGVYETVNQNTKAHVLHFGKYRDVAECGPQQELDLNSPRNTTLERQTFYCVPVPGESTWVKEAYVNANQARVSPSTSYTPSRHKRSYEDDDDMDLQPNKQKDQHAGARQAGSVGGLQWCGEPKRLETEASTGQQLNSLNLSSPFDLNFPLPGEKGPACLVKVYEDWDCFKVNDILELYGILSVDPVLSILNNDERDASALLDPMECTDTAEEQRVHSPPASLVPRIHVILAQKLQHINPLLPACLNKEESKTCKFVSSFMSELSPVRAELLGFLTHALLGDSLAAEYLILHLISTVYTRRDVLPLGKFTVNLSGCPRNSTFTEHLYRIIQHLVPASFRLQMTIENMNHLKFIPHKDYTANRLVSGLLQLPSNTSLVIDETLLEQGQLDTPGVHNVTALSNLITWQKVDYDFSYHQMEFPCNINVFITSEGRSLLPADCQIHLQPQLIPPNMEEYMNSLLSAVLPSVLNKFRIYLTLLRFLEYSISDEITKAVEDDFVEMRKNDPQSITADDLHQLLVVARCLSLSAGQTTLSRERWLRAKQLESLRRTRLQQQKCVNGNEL
UniProt Q9HCE5: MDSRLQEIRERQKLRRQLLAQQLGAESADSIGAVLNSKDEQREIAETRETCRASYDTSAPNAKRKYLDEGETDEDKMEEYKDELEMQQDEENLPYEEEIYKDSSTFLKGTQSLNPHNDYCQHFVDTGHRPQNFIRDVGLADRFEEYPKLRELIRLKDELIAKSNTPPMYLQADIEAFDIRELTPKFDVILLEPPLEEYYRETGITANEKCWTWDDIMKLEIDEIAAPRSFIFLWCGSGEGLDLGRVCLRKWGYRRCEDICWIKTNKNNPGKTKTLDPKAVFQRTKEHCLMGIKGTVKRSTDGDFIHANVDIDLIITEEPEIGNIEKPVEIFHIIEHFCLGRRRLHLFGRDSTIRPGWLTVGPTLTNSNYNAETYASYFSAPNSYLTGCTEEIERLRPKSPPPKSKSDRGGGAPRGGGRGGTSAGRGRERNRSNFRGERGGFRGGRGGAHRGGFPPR
UniProt Q96IZ6: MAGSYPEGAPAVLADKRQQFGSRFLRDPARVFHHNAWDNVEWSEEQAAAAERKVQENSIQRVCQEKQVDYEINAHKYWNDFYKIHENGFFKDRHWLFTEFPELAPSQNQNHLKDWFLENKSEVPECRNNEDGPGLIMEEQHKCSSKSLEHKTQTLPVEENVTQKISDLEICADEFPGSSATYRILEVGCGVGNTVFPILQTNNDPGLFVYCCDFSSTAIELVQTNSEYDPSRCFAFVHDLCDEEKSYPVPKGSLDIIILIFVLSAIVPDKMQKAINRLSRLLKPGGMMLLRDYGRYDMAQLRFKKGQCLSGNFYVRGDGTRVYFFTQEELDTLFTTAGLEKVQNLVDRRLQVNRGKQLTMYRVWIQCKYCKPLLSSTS
UniProt O95140: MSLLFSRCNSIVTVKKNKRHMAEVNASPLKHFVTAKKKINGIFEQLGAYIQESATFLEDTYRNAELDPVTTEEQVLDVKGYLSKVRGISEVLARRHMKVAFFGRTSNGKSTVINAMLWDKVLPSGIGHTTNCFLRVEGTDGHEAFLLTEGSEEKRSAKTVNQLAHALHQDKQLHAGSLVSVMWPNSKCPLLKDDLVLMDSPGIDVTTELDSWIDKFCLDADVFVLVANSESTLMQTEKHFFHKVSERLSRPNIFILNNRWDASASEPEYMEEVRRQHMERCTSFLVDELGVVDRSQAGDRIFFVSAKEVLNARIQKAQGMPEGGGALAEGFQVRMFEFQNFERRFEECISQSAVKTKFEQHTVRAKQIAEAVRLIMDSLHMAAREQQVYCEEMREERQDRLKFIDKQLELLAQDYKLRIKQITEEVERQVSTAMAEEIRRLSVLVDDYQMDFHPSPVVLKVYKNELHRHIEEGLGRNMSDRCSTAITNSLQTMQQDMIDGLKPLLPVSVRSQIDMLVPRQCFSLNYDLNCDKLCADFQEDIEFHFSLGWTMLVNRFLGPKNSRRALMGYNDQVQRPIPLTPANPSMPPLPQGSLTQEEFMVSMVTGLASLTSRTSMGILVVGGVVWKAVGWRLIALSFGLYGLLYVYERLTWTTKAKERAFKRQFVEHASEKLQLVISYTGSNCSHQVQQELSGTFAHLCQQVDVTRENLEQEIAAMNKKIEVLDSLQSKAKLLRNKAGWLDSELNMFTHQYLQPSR
UniProt Q86W50: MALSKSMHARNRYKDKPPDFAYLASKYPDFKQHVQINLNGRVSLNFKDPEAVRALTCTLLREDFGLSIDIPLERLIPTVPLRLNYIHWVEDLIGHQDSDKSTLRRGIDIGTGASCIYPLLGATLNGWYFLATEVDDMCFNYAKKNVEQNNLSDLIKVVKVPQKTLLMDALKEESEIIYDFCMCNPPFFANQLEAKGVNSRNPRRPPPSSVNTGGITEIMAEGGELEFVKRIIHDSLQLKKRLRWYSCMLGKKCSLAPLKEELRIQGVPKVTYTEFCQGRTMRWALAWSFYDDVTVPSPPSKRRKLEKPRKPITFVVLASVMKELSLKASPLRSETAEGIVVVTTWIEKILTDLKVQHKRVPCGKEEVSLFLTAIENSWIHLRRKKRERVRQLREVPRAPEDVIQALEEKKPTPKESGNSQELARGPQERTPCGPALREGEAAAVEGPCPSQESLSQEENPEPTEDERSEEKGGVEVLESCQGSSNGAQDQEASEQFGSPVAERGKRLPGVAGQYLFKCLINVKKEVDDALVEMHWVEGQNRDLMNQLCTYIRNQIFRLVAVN
UniProt Q06413, whole entry, looked up: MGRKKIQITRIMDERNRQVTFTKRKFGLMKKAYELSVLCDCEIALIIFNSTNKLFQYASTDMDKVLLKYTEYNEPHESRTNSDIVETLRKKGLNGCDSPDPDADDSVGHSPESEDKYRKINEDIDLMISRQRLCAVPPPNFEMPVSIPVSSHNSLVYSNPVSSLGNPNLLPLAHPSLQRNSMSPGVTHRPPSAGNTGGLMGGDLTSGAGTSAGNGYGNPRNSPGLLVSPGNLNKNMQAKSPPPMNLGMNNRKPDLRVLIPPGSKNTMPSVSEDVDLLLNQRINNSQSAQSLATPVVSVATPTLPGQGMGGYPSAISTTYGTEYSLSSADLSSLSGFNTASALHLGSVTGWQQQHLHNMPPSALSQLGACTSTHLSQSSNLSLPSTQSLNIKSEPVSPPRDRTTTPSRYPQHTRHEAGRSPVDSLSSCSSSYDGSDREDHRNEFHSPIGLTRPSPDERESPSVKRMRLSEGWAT
UniProt Q96AQ8: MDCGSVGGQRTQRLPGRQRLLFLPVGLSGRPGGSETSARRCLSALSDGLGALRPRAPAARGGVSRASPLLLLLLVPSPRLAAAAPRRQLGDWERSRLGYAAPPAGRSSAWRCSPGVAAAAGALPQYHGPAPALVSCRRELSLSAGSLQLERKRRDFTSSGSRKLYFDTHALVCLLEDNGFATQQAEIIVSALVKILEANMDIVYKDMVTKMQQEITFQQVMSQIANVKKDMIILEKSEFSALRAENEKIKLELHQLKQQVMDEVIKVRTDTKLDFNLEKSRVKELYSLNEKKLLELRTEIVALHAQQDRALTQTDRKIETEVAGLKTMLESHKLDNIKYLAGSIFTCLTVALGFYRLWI
UniProt P50579: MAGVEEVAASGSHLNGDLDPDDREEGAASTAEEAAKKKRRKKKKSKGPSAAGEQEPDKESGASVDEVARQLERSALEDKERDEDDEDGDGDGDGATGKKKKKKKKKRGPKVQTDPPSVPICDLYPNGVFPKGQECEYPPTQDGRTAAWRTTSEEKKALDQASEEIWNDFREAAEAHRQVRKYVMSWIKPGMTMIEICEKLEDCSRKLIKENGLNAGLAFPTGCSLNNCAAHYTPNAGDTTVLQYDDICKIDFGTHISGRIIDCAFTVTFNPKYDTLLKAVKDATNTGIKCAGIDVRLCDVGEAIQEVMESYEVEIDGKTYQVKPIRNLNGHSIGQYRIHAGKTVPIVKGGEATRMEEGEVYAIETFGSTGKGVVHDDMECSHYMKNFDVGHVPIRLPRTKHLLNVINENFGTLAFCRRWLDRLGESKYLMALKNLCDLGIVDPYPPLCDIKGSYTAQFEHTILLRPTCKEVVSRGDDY
UniProt O95983: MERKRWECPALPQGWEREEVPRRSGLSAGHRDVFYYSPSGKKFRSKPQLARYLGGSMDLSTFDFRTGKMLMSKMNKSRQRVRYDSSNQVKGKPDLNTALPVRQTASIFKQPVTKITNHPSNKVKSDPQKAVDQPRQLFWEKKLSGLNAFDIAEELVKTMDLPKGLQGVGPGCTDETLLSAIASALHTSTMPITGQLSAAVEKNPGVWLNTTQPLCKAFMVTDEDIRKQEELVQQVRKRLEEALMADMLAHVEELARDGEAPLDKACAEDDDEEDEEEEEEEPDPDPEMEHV
UniProt Q96RN5: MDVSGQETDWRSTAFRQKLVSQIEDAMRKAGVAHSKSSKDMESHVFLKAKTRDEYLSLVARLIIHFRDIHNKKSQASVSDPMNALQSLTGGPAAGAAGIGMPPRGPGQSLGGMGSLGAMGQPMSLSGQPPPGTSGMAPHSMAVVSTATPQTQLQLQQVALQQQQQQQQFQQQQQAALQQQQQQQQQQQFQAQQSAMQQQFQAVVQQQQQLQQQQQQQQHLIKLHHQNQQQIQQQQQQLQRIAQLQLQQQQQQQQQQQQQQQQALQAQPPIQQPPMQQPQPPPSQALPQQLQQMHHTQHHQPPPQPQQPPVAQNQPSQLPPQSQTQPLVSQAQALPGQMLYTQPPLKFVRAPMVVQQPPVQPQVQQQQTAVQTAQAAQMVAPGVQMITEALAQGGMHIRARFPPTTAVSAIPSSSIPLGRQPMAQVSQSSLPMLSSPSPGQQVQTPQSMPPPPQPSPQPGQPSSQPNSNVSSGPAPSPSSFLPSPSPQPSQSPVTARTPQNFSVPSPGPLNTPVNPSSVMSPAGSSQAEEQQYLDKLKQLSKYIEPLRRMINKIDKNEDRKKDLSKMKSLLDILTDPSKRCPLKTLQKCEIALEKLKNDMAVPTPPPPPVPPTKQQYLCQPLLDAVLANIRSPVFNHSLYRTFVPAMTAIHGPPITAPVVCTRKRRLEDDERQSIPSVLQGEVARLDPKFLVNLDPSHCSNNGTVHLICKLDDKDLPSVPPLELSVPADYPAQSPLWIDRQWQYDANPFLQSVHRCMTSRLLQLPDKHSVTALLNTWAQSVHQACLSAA
UniProt Q8NI22: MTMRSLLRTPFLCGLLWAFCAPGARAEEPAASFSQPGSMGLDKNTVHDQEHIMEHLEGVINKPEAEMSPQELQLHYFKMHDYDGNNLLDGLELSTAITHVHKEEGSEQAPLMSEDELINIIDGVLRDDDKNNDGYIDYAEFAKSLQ
UniProt Q16626: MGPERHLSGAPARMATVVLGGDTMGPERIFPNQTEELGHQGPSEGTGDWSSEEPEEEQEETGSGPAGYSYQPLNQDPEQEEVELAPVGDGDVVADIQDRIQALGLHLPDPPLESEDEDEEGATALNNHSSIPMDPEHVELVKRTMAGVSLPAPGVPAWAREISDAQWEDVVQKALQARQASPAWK
UniProt P55081: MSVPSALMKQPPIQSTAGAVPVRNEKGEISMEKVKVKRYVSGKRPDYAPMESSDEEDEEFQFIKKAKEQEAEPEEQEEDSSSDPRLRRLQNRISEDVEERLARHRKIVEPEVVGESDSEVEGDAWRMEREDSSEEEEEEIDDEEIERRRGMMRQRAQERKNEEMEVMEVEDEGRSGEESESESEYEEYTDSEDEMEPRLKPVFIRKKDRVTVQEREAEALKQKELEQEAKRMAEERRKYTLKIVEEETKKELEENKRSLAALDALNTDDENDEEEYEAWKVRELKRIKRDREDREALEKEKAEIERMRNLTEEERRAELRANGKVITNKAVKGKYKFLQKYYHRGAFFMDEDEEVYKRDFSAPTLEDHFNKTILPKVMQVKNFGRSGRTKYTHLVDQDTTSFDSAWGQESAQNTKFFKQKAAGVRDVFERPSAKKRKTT
UniProt Q14814: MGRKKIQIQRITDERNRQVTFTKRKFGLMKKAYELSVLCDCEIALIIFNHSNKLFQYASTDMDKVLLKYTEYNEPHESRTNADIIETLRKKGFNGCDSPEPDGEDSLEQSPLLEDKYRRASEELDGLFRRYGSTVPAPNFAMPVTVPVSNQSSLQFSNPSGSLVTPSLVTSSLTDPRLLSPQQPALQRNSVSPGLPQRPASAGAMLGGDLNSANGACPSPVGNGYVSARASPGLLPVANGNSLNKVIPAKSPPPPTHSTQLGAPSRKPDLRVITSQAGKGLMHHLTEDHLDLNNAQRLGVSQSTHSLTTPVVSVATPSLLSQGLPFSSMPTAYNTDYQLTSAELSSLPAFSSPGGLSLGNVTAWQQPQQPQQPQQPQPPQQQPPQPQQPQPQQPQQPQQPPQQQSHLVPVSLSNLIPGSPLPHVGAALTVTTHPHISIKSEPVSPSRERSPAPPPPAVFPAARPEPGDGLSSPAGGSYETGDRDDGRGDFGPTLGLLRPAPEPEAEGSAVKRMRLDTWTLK

Compound in the first assay: CS(=O)(=O)N1CCN(Cc2cc3nc(-c4cccc5[nH]ncc45)nc(N4CCOCC4)c3s2)CC1 [pictilisib]
Kind of assay: log2 fold change, soluble protein after heating vs DMSO (PISA); higher = thermal stabilisation; K562 lysate, 10 uM; active = over 0.2 and 3.5 SD of the protein, either way, in both replicates (recomputed). The method, boiled down: (§1)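 Quantification was by TMTpro 16plex LC-MS/MS with equalised channel sums, applied to the supernatant after 21,000xg for 90 min. Samples were crude K562 extract at 1 mg/mL protein in PBS pH 7.4 with 1 mM MgCl2, treated with 10 μM compound for 30 min, heated for 3 min across 48°C-58°C, pooled and brought to 0.5% NP-40 at 4°C. Values are log-two fold changes in thermal stability relative to solvent controls, from duplicates.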
As to MCMBP (UniProt Q9BTE3), the log2 fold change was inactive: -0.027.
MED20 (UniProt Q9H944): the log2 fold change was inactive: -0.049.
As to METTL5 (UniProt Q9NRN9), the log2 fold change was inactive: 0.085.
Turning to MDH2 (UniProt P40926), the log2 fold change is inactive: -0.004.
Turning to METTL14 (UniProt Q9HCE5), the log2 fold change is inactive: 0.016.
Still for that read-out and setting: the same measure for MECR (UniProt Q9BV79): inactive: -0.038; for METAP1D (UniProt Q6UB28): inactive: -0.025; for MEF2A (UniProt Q02078): inactive: -0.09.
Same read-out and setting: the same measure for MFSD10 (UniProt Q14728): inactive: -0.058; for MCL1 (UniProt Q07820): inactive: -0.083; for MCM6 (UniProt Q14566): inactive: -0.004.
For the target MED7 (UniProt O43513), the log2 fold change was inactive: 0.08.
Still for that read-out and setting: the figure for MFSD4B (UniProt Q5TF39) is inactive: 0.204; for ME2 (UniProt P23368) it is inactive: -0.016; for METTL2A (UniProt Q96IZ6) it is inactive: -0.049.
As for MFN2 (UniProt O95140), the log2 fold change was inactive: 0.015.
Same read-out and setting: the same measure for MED8 isoform 2 (UniProt Q96G25): inactive: -0.051; for MED4 (UniProt Q9NPJ6): inactive: -0.002; for METTL16 (UniProt Q86W50): inactive: 0.
With MEF2C isoform 5 (UniProt Q06413), the log2 fold change is inactive: -0.038.
Same read-out and setting: the figure for MCUR1 (UniProt Q96AQ8) is inactive: -0.015; for METAP2 (UniProt P50579) it is inactive: -0.016.
The same measure, in the same setting: the same measure for MBD3 (UniProt O95983): inactive: -0.022; for MBD2 (UniProt Q9UBB5): inactive: 0.017.
As for MED15 (UniProt Q96RN5), the log2 fold change is inactive: -0.009.
Turning to MCFD2 (UniProt Q8NI22), the log2 fold change is inactive: -0.01.
MCM2 (UniProt P49736): the log2 fold change was inactive: -0.006.
The same measure, in the same setting: the figure for MEAF6 isoform 3 (UniProt Q9HAF1) is inactive: 0.022; for ME3 (UniProt Q16798) it is inactive: 0.001.
Same read-out and setting: the same measure for MECP2 isoform 2 (UniProt P51608): inactive: 0.033; for MBOAT2 (UniProt Q6ZWT7): inactive: 0.061; for MCM4 (UniProt P33991): inactive: 0.02.
Same read-out and setting: the figure for MEA1 (UniProt Q16626) is inactive: -0.183.
As to MFAP1 (UniProt P55081), the log2 fold change was inactive: 0.037.
On the same count and under the same terms, the same measure for MED30 (UniProt Q96HR3): inactive: -0.113; for METTL3 (UniProt Q86U44): inactive: -0.015; for MCRIP1 (UniProt I3L4Q0): inactive: -0.082.
As for MCRIP2 (UniProt Q9BUT9), the log2 fold change is inactive: -0.147.
The same measure, in the same setting: the same measure for MEF2D (UniProt Q14814): inactive: -0.001.
On to MESD (UniProt Q14696), for which the log2 fold change was inactive: -0.031.

Compound in the next assay: C[C@@H](Oc1cc(-c2cnn(C3CCNCC3)c2)cnc1N)c1c(Cl)ccc(F)c1Cl [crizotinib]
The assay is described as above. Put shortly:
as §1
On to MCMBP (UniProt Q9BTE3), for which the log2 fold change is inactive: -0.032.
The same measure, in the same setting: the same measure for MED20 (UniProt Q9H944): inactive: -0.009; for METTL5 (UniProt Q9NRN9): inactive: 0.02; for MDH2 (UniProt P40926): inactive: 0.024.
For METTL14 (UniProt Q9HCE5), the log2 fold change was inactive: 0.03.
On the same count and under the same terms, the figure for MECR (UniProt Q9BV79) is inactive: 0.007.
Consider METAP1D (UniProt Q6UB28), for which the log2 fold change was inactive: -0.103.
Take MEF2A (UniProt Q02078): the log2 fold change was inactive: -0.028.
The same measure, in the same setting: the same measure for MFSD10 (UniProt Q14728): inactive: 0.036; for MCL1 (UniProt Q07820): inactive: -0.112.
Still for that read-out and setting: the figure for MCM6 (UniProt Q14566) is inactive: -0.014; for MED7 (UniProt O43513) it is inactive: 0.04.
Still for that read-out and setting: the figure for MFSD4B (UniProt Q5TF39) is inactive: -0.021; for ME2 (UniProt P23368) it is inactive: 0.014.
For METTL2A (UniProt Q96IZ6), the log2 fold change is inactive: -0.026.
As for MFN2 (UniProt O95140), the log2 fold change was inactive: -0.036.
With MED8 isoform 2 (UniProt Q96G25), the log2 fold change was inactive: 0.014.
On the same count and under the same terms, the figure for MED4 (UniProt Q9NPJ6) is inactive: 0.001; for METTL16 (UniProt Q86W50) it is inactive: 0.046; for MEF2C isoform 5 (UniProt Q06413) it is inactive: -0.007.
Consider MCUR1 (UniProt Q96AQ8), for which the log2 fold change is inactive: 0.011.
The same measure, in the same setting: the figure for METAP2 (UniProt P50579) is inactive: 0; for MBD3 (UniProt O95983) it is inactive: 0.008; for MBD2 (UniProt Q9UBB5) it is inactive: 0.006.
Still for that read-out and setting: the figure for MED15 (UniProt Q96RN5) is inactive: 0.055.
Still for that read-out and setting: the figure for MCFD2 (UniProt Q8NI22) is inactive: 0.115.
Take MCM2 (UniProt P49736): the log2 fold change was inactive: -0.037.
Still for that read-out and setting: the figure for MEAF6 isoform 3 (UniProt Q9HAF1) is inactive: -0.053; for ME3 (UniProt Q16798) it is inactive: -0.067; for MECP2 isoform 2 (UniProt P51608) it is inactive: 0.008.
Same read-out and setting: the same measure for MBOAT2 (UniProt Q6ZWT7): inactive: -0.005.
As for MCM4 (UniProt P33991), the log2 fold change was inactive: -0.037.
On the same count and under the same terms, the same measure for MEA1 (UniProt Q16626): inactive: -0.025.
MFAP1 (UniProt P55081): the log2 fold change was inactive: 0.079.
The same measure, in the same setting: the same measure for MED30 (UniProt Q96HR3): inactive: -0.069.
For the target METTL3 (UniProt Q86U44), the log2 fold change was inactive: 0.001.
On to MCRIP1 (UniProt I3L4Q0), for which the log2 fold change was inactive: 0.005.
Still for that read-out and setting: the same measure for MCRIP2 (UniProt Q9BUT9): inactive: 0.004.
For MEF2D (UniProt Q14814), the log2 fold change was inactive: 0.062.
Regarding MESD (UniProt Q14696), the log2 fold change is inactive: 0.052.

The values above are taken from the supplement of paper PMC10849652.
